Test system: acetic acid-induced pain model in mice
Experiment: Acetic acid pain model, writhes
Format: in vivo, ICR mice
Settings: 5 mg/kg ip
Experimental: The acetic acid is a reliable fast model for noxious/visceral pain usually used for screening potential drug candidates for their analgesic activity. The effects of test article combinations on pain generation are assayed using the acetic acid-induced pain model in mice. Adult male ICR mice are administered study drugs intraperitoneally (vehicle, TCA, steroid or TCA/Steroid test article combinations) once daily for 2 days (day −2 and day −1) and 30 minutes prior to the acetic acid injection on day 0 (time=0). […] To elicit a pain response, dilute acetic acid (10 ml/kg of 0.6% solution) is injected intraperitoneally into the abdomen. The animal is placed in an observation chamber, and 5 minutes after acetic acid administration, the number of writhes is counted and recorded over a five minute period by a blinded observer. A writhe is considered as a contraction of the abdominal muscles accompanied by an elongation of the body and extension of the hind limb. Results are expressed as number of writhes.

## CN1CC[C@]23c4c5ccc(O)c4O[C@H]2[C@@H](O)C=C[C@H]3[C@H]1C5 [Morphine]
  Mean # of writhes per 5 minutes ± SEM: 1.93 ± 1.53
